Experimental data: PubChem BioAssay AID1259425 (University of Nebraska Medical Center, 2018)

- Test: 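Find knockdowns that reproduce the gene expression pattern seen when KSR1 is lost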 (primary screen)
- Cell system: HCT116 human colon cancer cells
- Reagent: siRNA pool against human genes, 50 nM siRNA
- Read-out: 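After 50 nM siRNA pool, branched-DNA assay measures six marker transcripts per well, minus blank, normalised to the geometric mean of two housekeeping transcripts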
- Direction: BNIP3L mRNA: higher = more BNIP3L transcript after knockdown; NDRG1 mRNA: higher = more NDRG1 transcript after knockdown; BNIP3 mRNA: higher = more BNIP3 transcript after knockdown; ALDOC mRNA: higher = more ALDOC transcript after knockdown; ACSL5 mRNA: higher = more ACSL5 transcript after knockdown
The whole screen tested about 14,000 reagents; below is a random part of them. Reagents against one gene are numbered here. No sequences are given here. Not given: the time to read-out.

gene | reagent no. | BNIP3L mRNA, set 1 | NDRG1 mRNA, set 1 | BNIP3 mRNA, set 1 | ALDOC mRNA, set 1 | ACSL5 mRNA, set 1
SORBS2 (sorbin and SH3 domain containing 2) | 1 | 0.0623 | 0.239 | 0.128 | 0.0285 | 0.171
ISG20 (interferon stimulated exonuclease gene 20) | 1 | 0.13 | 0.181 | 0.199 | 0.0245 | 0.134
PPARG (peroxisome proliferator activated receptor gamma) | 1 | 0.0605 | 0.219 | 0.227 | 0.0445 | 0.156
UNC13B (unc-13 homolog B) | 1 | 0.101 | 0.529 | 0.253 | 0.0461 | 0.0785
HEXIM1 (HEXIM P-TEFb complex subunit 1) | 1 | 0.0915 | 0.414 | 0.325 | 0.0354 | 0.138
ARID4B (AT-rich interaction domain 4B) | 1 | 0.112 | 0.316 | 0.309 | 0.0109 | 0.124
CELF5 (CUGBP Elav-like family member 5) | 1 | 0.144 | 0.38 | 0.3 | 0.0313 | 0.204
DROSHA (drosha ribonuclease III) | 1 | 0.129 | 0.169 | 0.154 | 0.0259 | 0.204
GTF2F2 (general transcription factor IIF subunit 2) | 1 | 0.0664 | 0.14 | 0.252 | 0.02 | 0.168
TRAPPC11 (trafficking protein particle complex subunit 11) | 1 | 0.103 | 0.122 | 0.312 | 0.0617 | 0.179
MRPL50 (mitochondrial ribosomal protein L50) | 1 | 0.105 | 0.134 | 0.181 | 0.0385 | 0.166
MAB21L4 (mab-21 like 4) | 1 | 0.119 | 0.363 | 0.247 | 0.0545 | 0.203
GINS4 (GINS complex subunit 4) | 1 | 0.113 | 0.158 | 0.234 | 0.062 | 0.242
DUSP7 (dual specificity phosphatase 7) | 1 | 0.0481 | 0.1 | 0.233 | 0.0044 | 0.175
CXCL16 (C-X-C motif chemokine ligand 16) | 1 | 0.071 | 0.27 | 0.344 | 0.0332 | 0.248
IREB2 (iron responsive element binding protein 2) | 1 | 0.0571 | 0.0764 | 0.261 | 0.0116 | 0.174
TSGA10 (testis specific 10) | 1 | 0.0954 | 0.124 | 0.184 | 0.0552 | 0.25
ERGIC3 (ERGIC and golgi 3) | 1 | 0.272 | 0.232 | 0.324 | 0.0144 | 0.105
VMP1 (vacuole membrane protein 1) | 1 | 0.0578 | 0.552 | 0.364 | 0.0428 | 0.391
CPSF4 (cleavage and polyadenylation specific factor 4) | 1 | 0.0981 | 0.233 | 0.319 | 0.0203 | 0.133
SNX10 (sorting nexin 10) | 1 | 0.12 | 1.15 | 0.517 | 0.0253 | 0.516
RRP12 (ribosomal RNA processing 12 homolog) | 1 | 0.0983 | 0.268 | 0.391 | 0.0378 | 0.205
TPSG1 (tryptase gamma 1) | 1 | 0.0799 | 0.127 | 0.574 | 0.0197 | 0.128
URB2 (URB2 ribosome biogenesis homolog) | 1 | 0.11 | 0.304 | 0.313 | 0.0189 | 0.252
SCGB3A2 (secretoglobin family 3A member 2) | 1 | 0.105 | 0.135 | 0.273 | 0.014 | 0.0791
ADAM11 (ADAM metallopeptidase domain 11) | 1 | 0.053 | 0.0917 | 0.186 | 0.0188 | 0.0984
ZNF17 (zinc finger protein 17) | 1 | 0.166 | 0.295 | 0.403 | 0.0395 | 0.2
LILRB3 (leukocyte immunoglobulin like receptor B3) | 1 | 0.104 | 0.195 | 0.31 | 0.0269 | 0.137
RTN1 (reticulon 1) | 1 | 0.126 | 0.296 | 0.47 | 0.063 | 0.257
FUT2 (fucosyltransferase 2 (H blood group)) | 1 | 0.0607 | 0.0533 | 0.338 | 0.0179 | 0.0679
HOMER1 (homer scaffold protein 1) | 1 | 0.0954 | 0.482 | 0.324 | 0.0575 | 0.165
AKR1C4 (aldo-keto reductase family 1 member C4) | 1 | 0.128 | 0.281 | 0.384 | 0.0304 | 0.215
IKZF3 (IKAROS family zinc finger 3) | 1 | 0.0897 | 0.197 | 0.299 | 0.00615 | 0.218
GSTT2 (glutathione S-transferase theta 2 (gene/pseudogene)) | 1 | 0.151 | 0.24 | 0.36 | 0.0109 | 0.141
RAB36 (RAB36, member RAS oncogene family) | 1 | 0.0668 | 0.126 | 0.304 | 0.0315 | 0.158
P4HA2 (prolyl 4-hydroxylase subunit alpha 2) | 1 | 0.0927 | 0.152 | 0.319 | 0.0154 | 0.32
ASCC3 (activating signal cointegrator 1 complex subunit 3) | 1 | 0.0983 | 0.0758 | 0.332 | 0.0126 | 0.0976
ASCC3 (activating signal cointegrator 1 complex subunit 3) | 2 | 0.0888 | 0.615 | 0.234 | 0.0827 | 0.33
FAM193A (family with sequence similarity 193 member A) | 1 | 0.101 | 0.217 | 0.216 | 0.0232 | 0.241
PLPP5 (phospholipid phosphatase 5) | 1 | 0.128 | 0.147 | 0.235 | 0.0184 | 0.171
PTMA (prothymosin alpha) | 1 | 0.0578 | 0.11 | 0.236 | 0.0267 | 0.134
GZMK (granzyme K) | 1 | 0.11 | 0.0333 | 0.297 | 0.0128 | 0.0409
TNFRSF11B (TNF receptor superfamily member 11b) | 1 | 0.124 | 0.195 | 0.355 | 0.0979 | 0.204
ATOX1 (antioxidant 1 copper chaperone) | 1 | 0.0657 | 0.126 | 0.274 | 0.0187 | 0.137
SHISA5 (shisa family member 5) | 1 | 0.259 | 0.425 | 0.567 | 0.0669 | 0.38
P2RX1 (purinergic receptor P2X 1) | 1 | 0.351 | 0.702 | 0.418 | 0.0262 | 0.245
CCNK (cyclin K) | 1 | 0.0925 | 2.51 | 0.367 | 0.0531 | 0.21
KLF16 (KLF transcription factor 16) | 1 | 0.0602 | -0.0131 | 0.175 | -0.00809 | 0.18
TENM2 (teneurin transmembrane protein 2) | 1 | 0.323 | 0.159 | 0.24 | 0.101 | 0.167
ZC4H2 (zinc finger C4H2-type containing) | 1 | 0.126 | 0.413 | 0.149 | 0.0418 | 0.128

3 of these entries, set out differently.
{"gene": "LILRB3 (leukocyte immunoglobulin like receptor B3)", "reagent no.": 1, "BNIP3L mRNA, set 1": 0.104, "NDRG1 mRNA, set 1": 0.195, "BNIP3 mRNA, set 1": 0.31, "ALDOC mRNA, set 1": 0.0269, "ACSL5 mRNA, set 1": 0.137}
{"gene": "RTN1 (reticulon 1)", "reagent no.": 1, "BNIP3L mRNA, set 1": 0.126, "NDRG1 mRNA, set 1": 0.296, "BNIP3 mRNA, set 1": 0.47, "ALDOC mRNA, set 1": 0.063, "ACSL5 mRNA, set 1": 0.257}
{"gene": "FUT2 (fucosyltransferase 2 (H blood group))", "reagent no.": 1, "BNIP3L mRNA, set 1": 0.0607, "NDRG1 mRNA, set 1": 0.0533, "BNIP3 mRNA, set 1": 0.338, "ALDOC mRNA, set 1": 0.0179, "ACSL5 mRNA, set 1": 0.0679}
